Our source for the binding values is doi:10.1101/2021.01.05.423837.

Protein sequences, listed by entry. Tags and fused reporters are not part of them.
UniProt P43694: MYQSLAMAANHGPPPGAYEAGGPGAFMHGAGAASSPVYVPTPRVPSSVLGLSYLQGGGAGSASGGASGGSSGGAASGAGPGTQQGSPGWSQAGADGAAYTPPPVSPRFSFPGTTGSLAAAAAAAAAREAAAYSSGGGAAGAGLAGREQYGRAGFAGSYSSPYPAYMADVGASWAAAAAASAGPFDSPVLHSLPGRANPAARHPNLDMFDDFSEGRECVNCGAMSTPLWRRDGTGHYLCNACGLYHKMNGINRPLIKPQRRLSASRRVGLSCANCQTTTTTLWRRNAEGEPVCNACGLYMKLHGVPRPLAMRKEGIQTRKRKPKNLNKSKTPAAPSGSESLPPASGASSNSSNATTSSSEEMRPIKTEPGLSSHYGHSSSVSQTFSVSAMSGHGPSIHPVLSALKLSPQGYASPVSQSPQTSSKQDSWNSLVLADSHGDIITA
UniProt Q92922: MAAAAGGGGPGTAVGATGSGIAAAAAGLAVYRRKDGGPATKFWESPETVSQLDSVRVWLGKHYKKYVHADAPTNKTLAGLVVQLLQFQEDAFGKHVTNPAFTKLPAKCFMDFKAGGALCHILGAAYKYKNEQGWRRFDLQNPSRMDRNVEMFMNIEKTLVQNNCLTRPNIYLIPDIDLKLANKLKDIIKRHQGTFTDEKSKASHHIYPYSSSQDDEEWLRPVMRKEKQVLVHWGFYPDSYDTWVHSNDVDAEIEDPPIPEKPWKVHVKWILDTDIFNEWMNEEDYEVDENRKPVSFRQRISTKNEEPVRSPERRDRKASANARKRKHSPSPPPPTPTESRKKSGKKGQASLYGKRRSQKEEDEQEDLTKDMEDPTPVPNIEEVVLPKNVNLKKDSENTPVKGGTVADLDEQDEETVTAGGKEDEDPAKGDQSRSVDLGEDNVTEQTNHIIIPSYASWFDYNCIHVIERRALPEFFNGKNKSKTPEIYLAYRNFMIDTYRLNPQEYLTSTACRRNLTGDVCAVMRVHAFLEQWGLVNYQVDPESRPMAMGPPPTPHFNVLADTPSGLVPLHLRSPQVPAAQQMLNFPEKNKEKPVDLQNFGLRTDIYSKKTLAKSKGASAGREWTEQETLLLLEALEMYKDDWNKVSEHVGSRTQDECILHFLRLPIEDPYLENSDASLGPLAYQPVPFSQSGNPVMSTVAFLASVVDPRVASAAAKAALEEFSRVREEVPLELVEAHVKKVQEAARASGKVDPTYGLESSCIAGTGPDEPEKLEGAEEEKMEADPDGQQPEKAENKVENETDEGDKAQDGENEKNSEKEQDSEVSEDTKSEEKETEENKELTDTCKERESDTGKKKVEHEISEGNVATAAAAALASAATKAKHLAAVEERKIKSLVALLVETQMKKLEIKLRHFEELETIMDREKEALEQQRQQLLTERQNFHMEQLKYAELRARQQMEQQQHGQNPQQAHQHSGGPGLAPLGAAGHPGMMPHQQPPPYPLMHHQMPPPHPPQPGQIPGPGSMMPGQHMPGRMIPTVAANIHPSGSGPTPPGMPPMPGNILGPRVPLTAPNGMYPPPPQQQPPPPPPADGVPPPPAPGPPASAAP

Common to all, as to assay: co-IP
In test [1] the target is GATA4 (endogenous, human iPSC-derived cardiac progenitors) (human (endogenous in hiPSC-derived cardiac progenitors)) (UniProt P43694).
A further test concerns the target T1, GLYR1-MYC WT (human) (UniProt Q49A26).
T1 sequence: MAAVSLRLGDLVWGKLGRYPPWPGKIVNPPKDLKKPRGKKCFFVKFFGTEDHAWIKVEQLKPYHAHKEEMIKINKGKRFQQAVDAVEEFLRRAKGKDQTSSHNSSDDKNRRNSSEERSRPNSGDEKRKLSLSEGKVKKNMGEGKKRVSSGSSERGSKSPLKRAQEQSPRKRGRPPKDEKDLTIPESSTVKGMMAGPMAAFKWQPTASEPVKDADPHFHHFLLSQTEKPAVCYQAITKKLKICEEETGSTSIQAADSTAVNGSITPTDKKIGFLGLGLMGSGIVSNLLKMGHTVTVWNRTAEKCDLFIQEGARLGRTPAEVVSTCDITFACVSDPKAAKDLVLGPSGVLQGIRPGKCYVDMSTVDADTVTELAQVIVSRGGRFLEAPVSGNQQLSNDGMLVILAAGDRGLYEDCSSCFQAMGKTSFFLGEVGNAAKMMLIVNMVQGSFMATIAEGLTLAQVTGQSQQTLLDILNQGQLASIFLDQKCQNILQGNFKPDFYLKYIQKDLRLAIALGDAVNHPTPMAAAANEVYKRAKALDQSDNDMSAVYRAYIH

Test [2] has as its target SMARCC1 WT, MYC- or HA-tagged (human) (UniProt Q92922).
The next test deals with GFP-GATA4 (human) (UniProt P43694).
The target in test [3] is GATA4 (endogenous, human iPSC-derived cardiac progenitors) (human (endogenous in hiPSC-derived cardiac progenitors)) (UniProt P43694). The source holds these as a separate data set.

Where two headings read alike, the source gives them in different places. These are yes or no findings as the source states them, for the method shown. In cells and extracts the contact can be indirect. Some results given as binding are weak or reduced against the parent protein; the word gives no strength. For some assays here: Sequences can lack the tags named with a protein.

Take “SMARCC1 (endogenous, human iPSC-derived cardiac progenitors) (from UniProt Q92922 1-1105)”: the binding entry in test [1] is “binds”.
Regarding “GATA4 (ectopically expressed in HEK293 cells, tag not told) (from UniProt P43694 1-442)”, the binding entry (in the test with GLYR1-MYC WT (human); in test [2]) was “binds” in each case.

B1: GLYR1-MYC WT (protein, UniProt Q49A26 1-553)
chain: T1 sequence
Consider B1, for which the binding result in the test with GFP-GATA4 (human) is “binds”.

B2: GLYR1 (endogenous, human iPSC-derived cardiac progenitors) (protein, UniProt Q49A26 1-553)
chain: T1 sequence
Consider B2, for which the binding result in test [3] was “binds”.
